# Data taken from article PMC8315060, “N-terminus-independent activation of c-Src via binding to a tetraspan(in) TM4SF5 in hepatocellular carcinoma is abolished by the TM4SF5 C-terminal peptide application” (Theranostics, 2021).
# Amino acid sequences for entries named in this document (tags omitted). A change or cut given only in a name is not applied to a line headed by its entry.
# UniProt O14894: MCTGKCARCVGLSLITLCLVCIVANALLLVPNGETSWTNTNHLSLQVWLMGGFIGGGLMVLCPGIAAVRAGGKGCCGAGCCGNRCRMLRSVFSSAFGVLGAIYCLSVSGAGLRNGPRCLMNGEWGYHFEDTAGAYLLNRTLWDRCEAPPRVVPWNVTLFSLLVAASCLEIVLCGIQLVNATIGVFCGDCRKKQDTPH
# UniProt Q05397: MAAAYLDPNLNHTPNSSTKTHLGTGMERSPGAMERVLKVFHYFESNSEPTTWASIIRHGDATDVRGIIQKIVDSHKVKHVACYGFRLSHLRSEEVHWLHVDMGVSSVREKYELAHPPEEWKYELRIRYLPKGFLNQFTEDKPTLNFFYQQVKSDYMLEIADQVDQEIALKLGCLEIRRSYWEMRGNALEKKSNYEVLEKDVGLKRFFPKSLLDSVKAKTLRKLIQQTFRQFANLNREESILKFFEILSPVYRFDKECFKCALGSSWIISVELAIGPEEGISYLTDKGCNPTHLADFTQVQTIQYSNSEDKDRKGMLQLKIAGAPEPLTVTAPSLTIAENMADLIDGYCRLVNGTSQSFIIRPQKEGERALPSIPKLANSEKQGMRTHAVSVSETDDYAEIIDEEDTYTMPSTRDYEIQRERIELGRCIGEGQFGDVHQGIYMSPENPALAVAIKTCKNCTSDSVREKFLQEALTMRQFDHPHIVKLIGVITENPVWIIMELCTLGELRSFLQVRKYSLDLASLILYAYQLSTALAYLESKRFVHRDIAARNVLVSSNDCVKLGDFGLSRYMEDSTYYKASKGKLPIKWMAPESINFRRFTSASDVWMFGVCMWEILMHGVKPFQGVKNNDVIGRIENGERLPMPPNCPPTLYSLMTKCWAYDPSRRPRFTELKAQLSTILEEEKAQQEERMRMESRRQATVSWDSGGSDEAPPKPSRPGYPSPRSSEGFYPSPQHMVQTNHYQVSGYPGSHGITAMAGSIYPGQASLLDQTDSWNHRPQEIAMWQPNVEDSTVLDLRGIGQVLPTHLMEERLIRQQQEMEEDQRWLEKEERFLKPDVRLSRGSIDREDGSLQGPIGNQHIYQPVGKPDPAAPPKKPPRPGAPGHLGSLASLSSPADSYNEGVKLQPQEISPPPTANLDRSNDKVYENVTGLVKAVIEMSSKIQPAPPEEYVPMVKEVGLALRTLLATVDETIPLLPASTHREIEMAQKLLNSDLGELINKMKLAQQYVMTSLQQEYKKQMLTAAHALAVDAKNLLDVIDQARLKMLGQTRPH
# Where two headings read alike, the source gives them in different places. Results are given in words; binding and its absence hold for the method and conditions named. Binding seen in cells or lysates may run through a third protein. Some binding calls cover weakened binding; strength is not graded here.
# B1: Protein tyrosine phosphatase 1B (PTP1B) (enzyme, UniProt P18031 1-435)
# chain: MEMEKEFEQIDKSGSWAAIYQDIRHEASDFPCRVAKLPKNKNRNRYRDVSPFDHSRIKLHQEDNDYINASLIKMEEAQRSYILTQGPLPNTCGHFWEMVWEQKSRGVVMLNRVMEKGSLKCAQYWPQKEEKEMIFEDTNLKLTLISEDIKSYYTVRQLELENLTTQETREILHFHYTTWPDFGVPESPASFLNFLFKVRESGSLSPEHGPVVVHCSAGIGRSGTFCLADTCLLLMDKRKDPSSVDIKKVLLEMRKFRMGLIQTADQLRFSYLAVIEGAKFIMGDSSVQDQWKELSHEDLEPPPEHIPPPPRPPKRILEPHNGKCREFFPNHQWVKEETQEDKDCPIKEEKGSPLNAAPYGIESMSQDTEVRSRVVGGSLRGAQAASPAKGEPSLPEKDEDHALSYWKPFLVNMCVATVLTAGAYLCYRFLFNSNT
# Experiments:
# [1] = molecular target: endogenous TM4SF5 (human (endogenous in HepG2)) (UniProt O14894); assay: co-IP; endogenous proteins; HepG2 lysates precipitated with anti-TM4SF5 or anti-c-Src (sc-8056) antibody, normal IgG as control, immunoblot for FAK, c-Src and TM4SF5
# [2] = molecular target: FLAG-tagged TM4SF5 (human) (UniProt O14894); assay: co-IP; FLAG-TM4SF5 forms precipitated with anti-FLAG beads from whole cell lysates of stable SNU761 cells, immunoblot; in some panels PTP1B co-transfected or siPTP1B
# [3] = molecular target: STrEP-tagged TM4SF5WT (UniProt O14894); assay: co-IP; STrEP-tagged TM4SF5 precipitated with streptavidin beads from whole cell lysates of stably or transiently (48 h) transfected SNU449 cells, immunoblot; lysis buffer 1% Brij58, 150 mM NaCl, 20 mM HEPES pH 7.4, 2 mM MgCl2, 2 mM CaCl2; overnight in a cold room; in one panel cells treated with TSAHC 20 uM 24 h
# [4] = molecular target: STrEP-tagged TM4SF5_(C189A) mutant (human) (UniProt O14894); assay: as above
# [5] = molecular target: STrEP-tagged TM4SF5WT (UniProt O14894); assay: as above; remark: listed apart in the source
molecule,measurement,setting,value
endogenous FAK (focal adhesion kinase) (from UniProt Q05397 1-1052),binding,[1],binds
same,binding,[2],binds
same,binding,[3],binds
B1,binding,[4],binds
same,binding,[5],binds
